Percent effect of library compounds

Measurements from “University of Dundee, Small-Polar-MMV Screening Library” (2021), ChEMBL document CHEMBL3988442.

The filed quantity is “Percent Effect” (%).
The controls that fix the scale are not given in the record; negative values are as filed.
Compounds were drawn at random from those tested, without regard to their results.
Two or more numbers in one place are separate tests of the same structure; such repeats can differ widely.

Mtb glucose medium: 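Phenotypic screen: M. tuberculosis growth, glucose 7H9 medium, 3 days; the read-out is not stated. Tested at 50 µM. Higher reads as more growth inhibition (inferred: compounds with an IC50 in retests scored well above the rest). About 69,000 compounds were tested under these conditions; 1.1% (about 760) showed 50% or more at least once.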
Mtb cholesterol medium: 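Whole-cell growth test on Mycobacterium tuberculosis, read after 4 days in a medium based on cholesterol and the lipid DPPC; the read-out is not stated. Compounds at 50 µM. Higher reads as more growth inhibition (inferred: compounds with an IC50 in retests scored well above the rest). About 69,000 compounds were tested under these conditions; 0.54% (about 370) showed 50% or more at least once.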

* CS(=O)(=O)NCCC(=O)N1Cc2cnc(-c3ccccc3)nc2C1 | Mtb glucose medium: -57.44%; Mtb cholesterol medium: -17.96%
* Cc1ccc(N2CCCC(N(C)Cc3noc(C4CC4)n3)C2)nn1 (centres unmarked) | Mtb glucose medium: -4.643%; Mtb cholesterol medium: 1.026%
* O=C(O)C(F)(F)F.[H][C@@]12CN(Cc3ccoc3)CCO[C@]1([H])CN(C(=O)Cc1cccs1)C2 | Mtb glucose medium: -17.28%; Mtb cholesterol medium: -16.02% & -12.93%
* CCN(Cc1ccco1)C(=O)NCc1nnc2n1CCC2 | Mtb glucose medium: -15.81%; Mtb cholesterol medium: 13.49%
* COc1cccc(CN2CCC3(CC2)CCN(c2ncc(F)cn2)C3)c1.O=C(O)C(F)(F)F | Mtb glucose medium: 6.308% & 14.63%; Mtb cholesterol medium: 15.35%
* Cl.O=C(NCc1cccc(Cl)c1)C1=NOC2(CCNC2)C1 (centres unmarked) | Mtb glucose medium: 1.469%; Mtb cholesterol medium: 2.096%
* COCCN1CCC2(C1)c1ccccc1S(=O)(=O)N2C.O=C(O)C(F)(F)F (centres unmarked) | Mtb glucose medium: 24.09%; Mtb cholesterol medium: 7.254%
* Cc1nnc2n1CCN(CC(O)CN1CCC(C)CC1)C2 (centres unmarked) | Mtb glucose medium: 13.43% & -3.57%; Mtb cholesterol medium: 6.127%
* Cc1ccc(S(=O)(=O)Nc2ccc(C)c(C(=O)O)c2)s1 | Mtb glucose medium: 5.136%; Mtb cholesterol medium: -6.413% & 6.042%
* O=C(O)C(F)(F)F.[H][C@@]12CN(Cc3ccc4c(c3)OCO4)C[C@@H](C(=O)NC3CC3)[C@]1([H])CCO2 | Mtb glucose medium: 0.08729% & -9.482%; Mtb cholesterol medium: -16.52%
* Cc1nn(C)c(C)c1NC(=O)CN1CCN(c2nccs2)C(C)C1 (centres unmarked) | Mtb glucose medium: -1.103% & -5.044%; Mtb cholesterol medium: 11.55%
* CNC(=O)c1nc(COc2ccc3c(c2)OCO3)no1 | Mtb glucose medium: 23.45%; Mtb cholesterol medium: 4.992%
* Cn1ccnc1CN1CCCC2(CCN(CC3CCCO3)CC2)C1.O=C(O)C(F)(F)F.O=C(O)C(F)(F)F (centres unmarked) | Mtb glucose medium: 9.457%; Mtb cholesterol medium: -8.72%
* Cl.NCCc1cn(Cc2ccccn2)c2ccccc12 | Mtb glucose medium: -18.85%; Mtb cholesterol medium: -28.08%
* CC(C)N1CCOCC2(CN(Cc3nccs3)CCO2)C1.O=C(O)C(F)(F)F.O=C(O)C(F)(F)F (centres unmarked) | Mtb glucose medium: 13.57%; Mtb cholesterol medium: 21.22%
* CCS(=O)(=O)N1CCc2nc(N3CCOCC3)nc(N(C)C)c2CC1 | Mtb glucose medium: 7.042% & 3.748%; Mtb cholesterol medium: 35.25%
* [H][C@@]12CCCCN(C)[C@]1([H])[C@@H](c1ccccc1)CCN2C(=O)c1ccccn1 | Mtb glucose medium: 16.15%; Mtb cholesterol medium: -4.001%
* N#Cc1ccc(S(=O)(=O)NCCn2ccnc2)cc1Cl | Mtb glucose medium: -14.56%; Mtb cholesterol medium: -42.74%
* Cc1nccc(-c2cccc(NCC(=O)N3CCOCC3)c2)n1 | Mtb glucose medium: 1.81%; Mtb cholesterol medium: -0.425%
* O=C(NCC(Cc1cccc(F)c1)n1cccc1)C1CC1 (centres unmarked) | Mtb glucose medium: 42.67% & 17.8%; Mtb cholesterol medium: 22.61%
* COc1nccc(N2CC[C@@H](N3CCC(O)CC3)[C@H](O)C2)c1C#N | Mtb glucose medium: -47.25%; Mtb cholesterol medium: -10.59%
* Cc1ccc(-n2c(SCC(=O)O)nnc2-c2cccc(C)c2)cc1 | Mtb glucose medium: 8.318%; Mtb cholesterol medium: 9.764%
* CCOCC1CN(C(=O)c2cnoc2C)Cc2cnn(C)c21.O=C(O)C(F)(F)F (centres unmarked) | Mtb glucose medium: -23.27%; Mtb cholesterol medium: -24.08%
* Cc1nc(N2CCCC2)nc2c1CCN(C(=O)CN(C)C)CC2.O=C(O)C(F)(F)F | Mtb glucose medium: -5.644% & -17.39%; Mtb cholesterol medium: 20.65%
* CC(c1cncs1)N(C)Cc1ccc(CCC(C)(C)O)cc1 (centres unmarked) | Mtb glucose medium: 15.82%; Mtb cholesterol medium: 0.7774% & 6.528%
* Cc1ccc(C(=O)N2CCSCC2)cc1NC(=O)NCC1CCC1 | Mtb glucose medium: 11.09%; Mtb cholesterol medium: 1.371%
* Cc1noc2ncc(C(=O)N(CC3CCOC3)C3CC3)cc12 (centres unmarked) | Mtb glucose medium: -29.41%; Mtb cholesterol medium: -8.898%
* COc1ccc(Cl)cc1CNC(=O)CN1CCC2(CCOC2)C1 (centres unmarked) | Mtb glucose medium: 24.48%; Mtb cholesterol medium: 6.536%
* Cc1nn(CCNS(=O)(=O)NCc2ccccc2)c(C)c1Cl | Mtb glucose medium: 9.374%; Mtb cholesterol medium: -11.13%
* COc1cccc(CN(Cc2ccco2)Cc2cnc(C)n2C)c1.O=C(O)CC(O)(CC(=O)O)C(=O)O | Mtb glucose medium: -10.72%; Mtb cholesterol medium: -0.5299% & 7.89%
* Cc1n[nH]c2c1C(c1ccc3c(c1)OCO3)SCC(=O)N2 (centres unmarked) | Mtb glucose medium: -32.88%; Mtb cholesterol medium: -28.38%
* Cc1cc(C(C)(O)CNC(=O)OC(C)(C)C)c(C)o1 (centres unmarked) | Mtb glucose medium: 2.441% & 3.891%; Mtb cholesterol medium: -5.021%
* CN1Cc2c(C(=O)NC3CCCCC3)ncn2-c2ccccc2S1(=O)=O.O=C(O)C(F)(F)F | Mtb glucose medium: -0.4227%; Mtb cholesterol medium: 0.3093%
* COc1cccc(-c2c[nH]c(C)n2)c1F | Mtb glucose medium: -21.53%; Mtb cholesterol medium: -5.993%
* CC(CNC(=O)c1cccc(-n2cccn2)c1)Cn1ccnc1 (centres unmarked) | Mtb glucose medium: -8.002%; Mtb cholesterol medium: -7.289%
* NC(=O)c1cnn2c1NCC(CNCCc1cccs1)C2 (centres unmarked) | Mtb glucose medium: 18.55%; Mtb cholesterol medium: 11.44%
* CCC1CN(C(=O)c2cnc(-c3cnn(C)c3)s2)CCO1 (centres unmarked) | Mtb glucose medium: 32.1%; Mtb cholesterol medium: 4.137%
* CC1c2ncc(COCC3CCOCC3)n2CCN1C(=O)c1ccco1 (centres unmarked) | Mtb glucose medium: 13.07%; Mtb cholesterol medium: -1.66%

Once more, the final 5:

- COc1cccc(-c2c[nH]c(C)n2)c1F : Mtb glucose medium: -21.53%; Mtb cholesterol medium: -5.993%
- CC(CNC(=O)c1cccc(-n2cccn2)c1)Cn1ccnc1 (centres unmarked) : Mtb glucose medium: -8.002%; Mtb cholesterol medium: -7.289%
- NC(=O)c1cnn2c1NCC(CNCCc1cccs1)C2 (centres unmarked) : Mtb glucose medium: 18.55%; Mtb cholesterol medium: 11.44%
- CCC1CN(C(=O)c2cnc(-c3cnn(C)c3)s2)CCO1 (centres unmarked) : Mtb glucose medium: 32.1%; Mtb cholesterol medium: 4.137%
- CC1c2ncc(COCC3CCOCC3)n2CCN1C(=O)c1ccco1 (centres unmarked) : Mtb glucose medium: 13.07%; Mtb cholesterol medium: -1.66%